Test results as given in paper PMC12077264.

Sequences of proteins named here, by UniProt entry; tags and fusion partners are left off. A change or cut given only in a name is not applied to a line headed by its entry.
UniProt P69490: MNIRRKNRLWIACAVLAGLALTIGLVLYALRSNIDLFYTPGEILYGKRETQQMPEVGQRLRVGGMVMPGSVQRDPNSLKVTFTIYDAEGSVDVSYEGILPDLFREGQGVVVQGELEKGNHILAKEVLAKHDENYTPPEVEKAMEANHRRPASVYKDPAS

Columns and labels:
Assay in all cases: pull-down; GST affinity purification via the N-terminal GST tag on CcmC of co-expressed GST:CcmCDE(H130A) or GST:CcmC(D:flag)E(H130A) from E. coli; 5 ug affinity purified protein on SDS-PAGE, Coomassie stain and α-GST, α-CcmE, α-FLAG immunoblots
[1] = biological target: T1, GST:CcmC(I70C), in GST:CcmCDE(H130A) (E. coli) (UniProt P0ABM1)
T1 sequence: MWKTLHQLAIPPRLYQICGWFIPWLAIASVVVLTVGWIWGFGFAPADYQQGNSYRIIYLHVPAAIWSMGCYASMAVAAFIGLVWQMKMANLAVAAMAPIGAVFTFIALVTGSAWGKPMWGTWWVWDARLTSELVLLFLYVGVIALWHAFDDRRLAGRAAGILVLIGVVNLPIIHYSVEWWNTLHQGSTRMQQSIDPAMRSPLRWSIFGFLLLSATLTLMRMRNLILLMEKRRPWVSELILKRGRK

[2] = biological target: T2, GST:CcmC(R152C), in GST:CcmCDE(H130A) (E. coli) (UniProt P0ABM1)
T2 sequence: T1 sequence with C70I, R152C

[3] = biological target: T3, GST:CcmC (wild type), in GST:CcmCDE(H130A) or GST:CcmC(D:flag)E(H130A) (E. coli) (UniProt P0ABM1)
T3 sequence: T1 sequence with C70I

[4] = biological target: T4, GST:CcmC(M68C), in GST:CcmCDE(H130A) (E. coli) (UniProt P0ABM1)
T4 sequence: T1 sequence with M68C, C70I

[5] = biological target: T5, GST:CcmC(V102C), in GST:CcmCDE(H130A) (E. coli) (UniProt P0ABM1)
T5 sequence: T1 sequence with C70I, V102C

[6] = biological target: T6, GST:CcmC(A97C), in GST:CcmCDE(H130A) (E. coli) (UniProt P0ABM1)
T6 sequence: T1 sequence with C70I, A97C

[7] = biological target: T7, GST:CcmC(H147C), in GST:CcmCDE(H130A) (E. coli) (UniProt P0ABM1)
T7 sequence: T1 sequence with C70I, H147C

Measured: binding

CcmE(H130A) (from UniProt P69490)
binds: [1] | [2] | [3] | [4] | [5] | [6] | [7]

Residue numbers refer to the chain shown, from its start. No constants are given. Whether binding was seen depends on the method and setting. Binding seen in cells or lysates may run through a third protein. Binding calls can cover weak binding; strength is not graded here. Where a sequence is shown, tags or fusion partners need not be part of it.
